Experimental data as given in the supplement of paper PMC8326762, “A Small Molecule Inhibitor of Pex3–Pex19 Interaction Disrupts Glycosome Biogenesis and Causes Lethality in Trypanosoma brucei” (Frontiers in Cell and Developmental Biology, 2021).
Where a name gives a salt, the structure may show the parent alone. The list shows a part of the results. This is a noisy data set.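 Yeast growth was read as optical density at 600 nm. The two-hybrid strains grew without histidine, so growth needed the Pex3–Pex19 binding; a compound counted as trypanosome-selective if it cut growth of the trypanosome-pair strain by more than 65% and the human-pair strain by less than 65%.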

Key:
[1] = system: Saccharomyces cerevisiae HF7c pdr5Δ; assay: general growth inhibition of yeast HF7c pdr5Δ in -Leu -Trp medium, relative to DMSO; higher = stronger general growth inhibition; conditions: 100 µM; 24 h
[2] = system: human PEX3-PEX19 interaction (yeast two-hybrid); assay: growth inhibition of yeast two-hybrid strain reporting HsPex3-HsPex19 interaction, relative to DMSO; higher = stronger inhibition of human Pex3-Pex19 interaction / growth; conditions: 100 µM; 24 h; 3-aminotriazole 10 mM
[3] = system: T. brucei Pex3-Pex19 interaction (yeast two-hybrid); assay: growth inhibition of yeast two-hybrid strain reporting TbPex3-TbPex19 interaction, relative to DMSO; higher = stronger inhibition of T. brucei Pex3-Pex19 interaction / growth; conditions: 100 µM; 24 h

Row | SMILES | general growth inhibition [1] | growth inhibition [2] | growth inhibition [3]
1 | Nc1ncnc2c1ncn2[C@@H]1O[C@H](COP(=O)(O)OP(=O)(O)OP(=O)(O)OP(=O)(O)OC[C@@H]2O[C@H](n3cnc4c(N)ncnc43)C(O)[C@@H]2O)[C@H](O)C1O (some centres not stated) [P1,P4-Di(adenosine-5')tetraphosphate triammonium] | 36.7% | 32.4% | 53.9%
2 | Clc1ccc2c(c1)N=C(N1CCNCC1)c1ccccc1N2 [N-Desmethylclozapine] | 29.2% | 33% | 53.6%
3 | O=C(O)CCC(C(=O)O)N1C(=O)c2ccccc2C1=O [L-Glutamic acid, N-phthaloyl-] | 10.3% | 7.15% | 38.5%
4 | CN(C)CC/C=C1/c2ccccc2Sc2ccc(Cl)cc21 [Chlorprothixene hydrochloride] | 25.3% | 29.1% | 50.8%
5 | COc1ccccc1N1CCN(CCN(C(=O)c2ccc(F)cc2)c2ccccn2)CC1 [p-MPPF dihydrochloride] | 47.5% | 43.9% | 65.4%
6 | NC(=O)c1cc[n+](CC2=C(C(=O)O)N3C(=O)[C@@H](NC(=O)C(c4ccccc4)S(=O)(=O)[O-])[C@H]3SC2)cc1 (some centres not stated) [Cefsulodin sodium salt hydrate] | 37.2% | 47.7% | 56.7%
7 | O=C(O)COCCN1CCN(C(c2ccccc2)c2ccc(Cl)cc2)CC1 (configuration not stated) [Cetirizine dihydrochloride] | 31.1% | 45.4% | 61%
8 | c1cnc(N2CCN(Cc3ccc4c(c3)OCO4)CC2)nc1 [Piribedil maleate] | 15.8% | 16.8% | 42.6%
9 | COc1ccc(CCn2nnnc2C2(c3ccc(C)cc3)CC2)cc1 [Mephetyl tetrazole] | 41.3% | 44.8% | 45.9%
